Data taken from patent publication US20150104448A1 (TRUE NORTH THERAPEUTICS, published 2015).
No constants are given. Whether binding was seen depends on the method and setting.

What was measured:
MASP1v2 = test: ELISA, target proteins immobilized on micro-titer plates
MASP1v1 = test: as above

B1: Anti-C1s monoclonal antibody IPN003 (antibody, V domains shown)
VH: EVMLVESGGALVKPGGSLKLSCAASGFTFSNYAMSWVRQIPEKRLEWVATISSGGSHTYYLDSVKGRFTISRDNARDTLYLQMSSLRSEDTALYYCARLFTGYAMDYWGQGTSVTVSS
VL: QIVLTQSPAIMSASLGERVTMTCTASSSVSSSYLHWYQQKPGSSPKLWIYSTSNLASGVPARFSGSGSGTFYSLTISSMEAEDDATYYCHQYYRLPPITFGAGTKLELK
notes: Mouse monoclonal antibody from an NZBW hybridoma; Biotin-labeled in some assays; also called IPN-M34; M34
binding (MASP1v2): no binding (tested: about 2e-7 M)
binding (MASP1v1): no binding (tested: about 2e-7 M)
